The text below walks through data of the supplement of paper PMC10849652.

By UniProt entry, the sequences of proteins in these tests, tags left out. Where a name states a change or a piece, a line headed by the entry shows the natural chain unless it says otherwise.
UniProt Q8TAF3: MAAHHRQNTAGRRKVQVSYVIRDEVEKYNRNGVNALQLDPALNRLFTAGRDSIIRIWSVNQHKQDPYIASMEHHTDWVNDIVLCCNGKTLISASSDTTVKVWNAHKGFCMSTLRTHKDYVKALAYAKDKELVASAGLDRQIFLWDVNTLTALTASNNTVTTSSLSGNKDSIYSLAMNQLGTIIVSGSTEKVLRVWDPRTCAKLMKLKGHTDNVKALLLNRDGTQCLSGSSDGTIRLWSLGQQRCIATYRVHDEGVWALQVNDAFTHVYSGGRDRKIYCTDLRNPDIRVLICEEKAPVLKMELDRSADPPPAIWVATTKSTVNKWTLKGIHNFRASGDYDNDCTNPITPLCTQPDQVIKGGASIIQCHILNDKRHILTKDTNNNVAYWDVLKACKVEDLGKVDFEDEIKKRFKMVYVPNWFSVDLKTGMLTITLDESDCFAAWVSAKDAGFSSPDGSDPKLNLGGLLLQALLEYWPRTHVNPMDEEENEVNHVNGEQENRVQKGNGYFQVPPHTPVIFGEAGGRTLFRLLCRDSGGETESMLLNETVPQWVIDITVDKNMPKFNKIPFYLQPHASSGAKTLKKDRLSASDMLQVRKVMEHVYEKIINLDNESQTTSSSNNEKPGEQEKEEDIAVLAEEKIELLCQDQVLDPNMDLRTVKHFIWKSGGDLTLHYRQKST
UniProt O95785: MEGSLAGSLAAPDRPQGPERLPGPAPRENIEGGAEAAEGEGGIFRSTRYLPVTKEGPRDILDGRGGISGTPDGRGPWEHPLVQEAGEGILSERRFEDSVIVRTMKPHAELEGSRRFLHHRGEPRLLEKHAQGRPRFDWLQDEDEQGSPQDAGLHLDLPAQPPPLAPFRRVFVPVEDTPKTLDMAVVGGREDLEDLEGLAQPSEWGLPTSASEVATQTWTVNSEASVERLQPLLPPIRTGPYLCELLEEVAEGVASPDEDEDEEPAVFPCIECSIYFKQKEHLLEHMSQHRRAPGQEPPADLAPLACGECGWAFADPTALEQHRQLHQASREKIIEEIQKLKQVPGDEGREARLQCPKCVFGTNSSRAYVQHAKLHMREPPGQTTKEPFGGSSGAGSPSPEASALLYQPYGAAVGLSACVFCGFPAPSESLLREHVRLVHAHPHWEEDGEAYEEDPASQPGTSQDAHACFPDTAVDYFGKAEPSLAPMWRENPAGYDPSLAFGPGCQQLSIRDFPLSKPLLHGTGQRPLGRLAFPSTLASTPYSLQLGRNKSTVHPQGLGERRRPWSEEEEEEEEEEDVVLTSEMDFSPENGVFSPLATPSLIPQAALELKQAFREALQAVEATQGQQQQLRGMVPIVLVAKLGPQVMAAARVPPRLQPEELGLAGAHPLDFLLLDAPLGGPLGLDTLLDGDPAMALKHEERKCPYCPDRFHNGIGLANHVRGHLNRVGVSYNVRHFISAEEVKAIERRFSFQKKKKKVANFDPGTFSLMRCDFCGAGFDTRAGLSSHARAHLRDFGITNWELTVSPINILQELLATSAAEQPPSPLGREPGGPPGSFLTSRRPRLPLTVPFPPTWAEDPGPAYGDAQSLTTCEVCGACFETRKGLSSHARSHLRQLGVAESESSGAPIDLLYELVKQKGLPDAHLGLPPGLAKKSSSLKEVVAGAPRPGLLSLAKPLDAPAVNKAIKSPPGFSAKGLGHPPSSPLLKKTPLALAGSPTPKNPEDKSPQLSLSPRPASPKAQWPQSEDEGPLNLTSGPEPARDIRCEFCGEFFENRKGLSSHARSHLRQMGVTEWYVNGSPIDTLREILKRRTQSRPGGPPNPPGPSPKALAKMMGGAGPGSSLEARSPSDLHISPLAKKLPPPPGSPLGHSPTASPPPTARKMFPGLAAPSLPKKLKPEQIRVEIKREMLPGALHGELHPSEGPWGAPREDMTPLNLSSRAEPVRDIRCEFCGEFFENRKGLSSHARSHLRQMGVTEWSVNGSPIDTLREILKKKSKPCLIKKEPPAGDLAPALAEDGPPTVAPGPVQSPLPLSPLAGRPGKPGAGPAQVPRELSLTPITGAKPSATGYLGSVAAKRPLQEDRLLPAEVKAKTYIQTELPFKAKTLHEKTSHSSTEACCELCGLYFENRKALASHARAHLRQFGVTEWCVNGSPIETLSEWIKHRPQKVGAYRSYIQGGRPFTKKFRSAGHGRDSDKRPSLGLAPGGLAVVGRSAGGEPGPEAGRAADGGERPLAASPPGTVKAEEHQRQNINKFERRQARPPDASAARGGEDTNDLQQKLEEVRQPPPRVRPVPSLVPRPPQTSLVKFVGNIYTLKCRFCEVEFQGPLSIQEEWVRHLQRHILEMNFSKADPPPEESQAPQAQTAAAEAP
UniProt A6NGB9: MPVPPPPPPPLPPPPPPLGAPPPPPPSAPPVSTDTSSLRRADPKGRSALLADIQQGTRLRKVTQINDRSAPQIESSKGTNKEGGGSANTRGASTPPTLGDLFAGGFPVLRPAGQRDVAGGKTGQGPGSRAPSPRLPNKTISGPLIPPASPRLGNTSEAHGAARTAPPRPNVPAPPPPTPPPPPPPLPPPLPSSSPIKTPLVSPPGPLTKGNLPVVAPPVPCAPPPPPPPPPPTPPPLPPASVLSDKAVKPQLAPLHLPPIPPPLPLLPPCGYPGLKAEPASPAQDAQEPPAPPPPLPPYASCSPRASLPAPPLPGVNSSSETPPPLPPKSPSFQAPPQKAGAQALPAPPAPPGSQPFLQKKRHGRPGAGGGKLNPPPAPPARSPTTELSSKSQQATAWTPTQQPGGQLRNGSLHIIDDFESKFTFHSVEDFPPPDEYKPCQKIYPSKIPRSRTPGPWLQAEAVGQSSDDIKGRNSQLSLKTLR
UniProt Q9Y277: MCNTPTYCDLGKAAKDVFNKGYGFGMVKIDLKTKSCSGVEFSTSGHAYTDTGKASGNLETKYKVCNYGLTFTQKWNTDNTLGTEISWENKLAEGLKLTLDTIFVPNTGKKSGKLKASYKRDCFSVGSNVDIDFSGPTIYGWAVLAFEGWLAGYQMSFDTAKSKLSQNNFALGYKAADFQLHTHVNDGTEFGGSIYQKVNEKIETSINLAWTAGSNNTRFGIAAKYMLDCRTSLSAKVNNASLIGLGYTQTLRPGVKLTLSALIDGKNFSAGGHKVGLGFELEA
UniProt Q9UNX4: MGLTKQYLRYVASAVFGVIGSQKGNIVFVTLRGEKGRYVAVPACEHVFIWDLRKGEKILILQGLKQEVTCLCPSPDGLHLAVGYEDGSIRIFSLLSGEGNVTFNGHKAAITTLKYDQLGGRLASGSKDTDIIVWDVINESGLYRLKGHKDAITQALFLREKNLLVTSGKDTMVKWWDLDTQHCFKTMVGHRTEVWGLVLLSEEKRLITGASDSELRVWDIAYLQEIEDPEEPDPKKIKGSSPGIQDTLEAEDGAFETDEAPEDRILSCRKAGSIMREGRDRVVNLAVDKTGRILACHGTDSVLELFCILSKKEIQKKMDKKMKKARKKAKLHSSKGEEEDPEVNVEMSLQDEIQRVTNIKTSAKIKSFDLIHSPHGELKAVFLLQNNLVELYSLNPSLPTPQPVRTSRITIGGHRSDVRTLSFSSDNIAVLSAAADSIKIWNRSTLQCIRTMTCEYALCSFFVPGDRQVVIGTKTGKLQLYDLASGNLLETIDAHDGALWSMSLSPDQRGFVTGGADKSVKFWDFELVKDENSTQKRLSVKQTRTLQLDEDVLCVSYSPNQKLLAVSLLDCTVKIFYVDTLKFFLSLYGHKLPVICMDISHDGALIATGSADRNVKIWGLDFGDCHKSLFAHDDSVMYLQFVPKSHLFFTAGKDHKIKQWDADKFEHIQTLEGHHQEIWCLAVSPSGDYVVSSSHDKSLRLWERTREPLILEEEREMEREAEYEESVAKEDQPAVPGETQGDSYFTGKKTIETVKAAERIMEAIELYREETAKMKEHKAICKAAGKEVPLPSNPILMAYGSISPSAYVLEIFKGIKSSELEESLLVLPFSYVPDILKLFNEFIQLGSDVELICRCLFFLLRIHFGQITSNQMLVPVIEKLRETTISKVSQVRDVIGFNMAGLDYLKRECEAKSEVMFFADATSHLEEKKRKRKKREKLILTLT
UniProt Q15007: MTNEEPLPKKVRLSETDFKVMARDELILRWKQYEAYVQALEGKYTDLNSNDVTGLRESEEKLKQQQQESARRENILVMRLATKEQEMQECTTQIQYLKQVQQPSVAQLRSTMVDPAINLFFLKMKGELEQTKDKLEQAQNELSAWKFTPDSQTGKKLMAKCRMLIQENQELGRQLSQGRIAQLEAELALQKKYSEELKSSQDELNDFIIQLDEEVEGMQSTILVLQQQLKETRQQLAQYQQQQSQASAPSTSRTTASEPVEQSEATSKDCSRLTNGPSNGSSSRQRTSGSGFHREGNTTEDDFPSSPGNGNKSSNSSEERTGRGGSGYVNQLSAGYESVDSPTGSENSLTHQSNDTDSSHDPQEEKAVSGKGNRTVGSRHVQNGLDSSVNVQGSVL
UniProt Q7Z5U6: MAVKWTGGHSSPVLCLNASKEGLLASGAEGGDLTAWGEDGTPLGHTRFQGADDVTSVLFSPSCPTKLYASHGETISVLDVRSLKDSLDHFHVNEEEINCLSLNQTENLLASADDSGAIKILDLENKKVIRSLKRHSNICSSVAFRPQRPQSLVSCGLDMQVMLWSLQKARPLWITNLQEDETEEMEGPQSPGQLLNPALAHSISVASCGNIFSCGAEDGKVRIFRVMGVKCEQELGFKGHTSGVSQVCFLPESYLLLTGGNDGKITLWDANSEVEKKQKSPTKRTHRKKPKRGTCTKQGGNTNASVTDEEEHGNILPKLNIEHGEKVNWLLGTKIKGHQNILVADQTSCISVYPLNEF
UniProt Q8NI36: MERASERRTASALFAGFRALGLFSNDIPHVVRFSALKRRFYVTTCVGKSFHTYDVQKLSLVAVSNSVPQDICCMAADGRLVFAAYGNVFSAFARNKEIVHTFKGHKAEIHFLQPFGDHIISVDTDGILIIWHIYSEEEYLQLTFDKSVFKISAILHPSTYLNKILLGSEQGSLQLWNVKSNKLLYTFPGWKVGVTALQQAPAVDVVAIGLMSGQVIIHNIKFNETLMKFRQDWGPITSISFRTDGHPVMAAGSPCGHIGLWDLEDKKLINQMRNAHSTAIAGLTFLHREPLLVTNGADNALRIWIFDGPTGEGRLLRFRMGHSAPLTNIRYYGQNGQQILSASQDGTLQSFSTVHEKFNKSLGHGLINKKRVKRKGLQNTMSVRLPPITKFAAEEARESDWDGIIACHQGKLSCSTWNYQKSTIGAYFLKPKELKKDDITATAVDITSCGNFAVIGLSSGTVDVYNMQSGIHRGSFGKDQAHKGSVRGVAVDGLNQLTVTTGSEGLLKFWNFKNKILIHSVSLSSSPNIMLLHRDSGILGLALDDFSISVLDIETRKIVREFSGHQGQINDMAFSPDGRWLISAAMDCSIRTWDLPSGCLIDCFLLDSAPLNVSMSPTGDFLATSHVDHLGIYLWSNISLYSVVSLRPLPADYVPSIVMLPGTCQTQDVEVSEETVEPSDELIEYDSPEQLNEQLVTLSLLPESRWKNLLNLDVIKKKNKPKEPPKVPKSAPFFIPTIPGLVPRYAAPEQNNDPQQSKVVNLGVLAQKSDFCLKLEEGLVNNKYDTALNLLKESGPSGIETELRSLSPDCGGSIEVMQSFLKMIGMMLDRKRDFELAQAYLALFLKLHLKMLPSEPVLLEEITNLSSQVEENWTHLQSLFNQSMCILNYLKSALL
UniProt Q9Y6W5, whole entry, looked up: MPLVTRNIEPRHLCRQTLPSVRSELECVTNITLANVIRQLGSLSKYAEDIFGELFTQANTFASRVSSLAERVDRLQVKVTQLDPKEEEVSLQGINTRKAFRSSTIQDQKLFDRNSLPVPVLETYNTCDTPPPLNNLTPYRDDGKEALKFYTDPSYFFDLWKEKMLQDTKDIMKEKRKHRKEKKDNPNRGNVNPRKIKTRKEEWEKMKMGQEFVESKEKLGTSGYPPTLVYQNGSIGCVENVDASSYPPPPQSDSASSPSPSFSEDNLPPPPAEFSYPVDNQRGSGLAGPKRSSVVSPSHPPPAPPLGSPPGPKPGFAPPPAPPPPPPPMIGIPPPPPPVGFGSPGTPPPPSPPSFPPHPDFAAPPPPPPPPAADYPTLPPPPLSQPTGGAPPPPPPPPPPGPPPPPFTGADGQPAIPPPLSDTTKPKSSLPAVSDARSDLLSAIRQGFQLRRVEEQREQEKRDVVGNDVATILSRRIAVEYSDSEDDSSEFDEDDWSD
UniProt Q6RFH5: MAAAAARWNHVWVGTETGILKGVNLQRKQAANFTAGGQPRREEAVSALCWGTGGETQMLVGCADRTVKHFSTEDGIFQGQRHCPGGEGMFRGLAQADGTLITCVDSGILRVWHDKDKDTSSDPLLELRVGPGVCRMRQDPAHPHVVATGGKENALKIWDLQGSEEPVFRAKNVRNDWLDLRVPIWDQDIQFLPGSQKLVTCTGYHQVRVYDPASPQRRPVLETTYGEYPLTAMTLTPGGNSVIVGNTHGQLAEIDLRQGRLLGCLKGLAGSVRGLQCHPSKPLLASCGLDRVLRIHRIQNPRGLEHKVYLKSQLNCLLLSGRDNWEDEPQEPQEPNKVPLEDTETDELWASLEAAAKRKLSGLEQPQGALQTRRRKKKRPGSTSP

The list shows a part of the results.

Compound in this assay: c1cn2cc(-c3ccc4cn[nH]c4c3)nc(Nc3ccc(N4CCOCC4)cc3)c2n1 [entospletinib]
In words: log2 fold change, soluble protein after heating vs DMSO (PISA); higher = thermal stabilisation; K562 cells, 10 uM, 30 min; active = over 0.2 and 3.5 SD of the protein, either way, in both replicates (recomputed). An outline of the steps: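 K562 cells (2×10^6 cells/mL) were treated with 10 μM compound for 30 min, and aliquots were heated for 3 min over 48°C-58°C. Pooled aliquots were extracted in PBS with 0.5% NP-40 at 4°C, and the supernatant after 21,000xg for 90 min was measured by TMTpro 16plex LC-MS/MS with channel sums equalised. Reported thermal stability, relative to control samples and from duplicates, is a log2 fold change.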
Turning to VPS4A (UniProt Q9UN37), the log2 fold change was inactive: -0.011.

Regarding VPS36 (UniProt Q86VN1), the log2 fold change was inactive: -0.053.

For the target WDR48 (UniProt Q8TAF3), the log2 fold change is inactive: 0.

On to WIZ isoform 3 (UniProt O95785), for which the log2 fold change is inactive: 0.023.

Turning to WDR33 (UniProt Q9C0J8), the log2 fold change is inactive: 0.057.

For the target VDAC2 (UniProt Q5JSD2), the log2 fold change is inactive: -0.113.

Consider VPS54 (UniProt Q9P1Q0), for which the log2 fold change is inactive: 0.098.

For the target WIPF3 (UniProt A6NGB9), the log2 fold change was inactive: -0.001.

Turning to VCX3B (UniProt Q9H321), the log2 fold change was inactive: -0.008.

Turning to VMA21 isoform 2 (UniProt Q3ZAQ7), the log2 fold change was inactive: -0.009.

For the target WIPI1 (UniProt Q5MNZ9), the log2 fold change was inactive: -0.147.

Consider WDR13 (UniProt Q9H1Z4), for which the log2 fold change was inactive: 0.11.

In the case of VDAC3 (UniProt Q9Y277), the log2 fold change was inactive: 0.008.

With WDR12 (UniProt Q9GZL7), the log2 fold change was inactive: -0.018.

WDR3 (UniProt Q9UNX4): the log2 fold change was inactive: 0.044.

Regarding WDR5 (UniProt P61964), the log2 fold change is inactive: 0.057.

With WTAP (UniProt Q15007), the log2 fold change is inactive: 0.014.

As to WIPI2 (UniProt Q9Y4P8), the log2 fold change was inactive: -0.073.

WDR1 (UniProt O75083): the log2 fold change is inactive: -0.009.

Regarding WDR53 (UniProt Q7Z5U6), the log2 fold change was inactive: -0.112.

In the case of WDR36 (UniProt Q8NI36), the log2 fold change is inactive: -0.012.

Turning to WASF2 (UniProt Q9Y6W5), the log2 fold change was inactive: -0.024.

For the target WDR74 (UniProt Q6RFH5), the log2 fold change was inactive: 0.029.

As for VMA21 (UniProt Q3ZAQ7), the log2 fold change is inactive: 0.035.

For VPS25 (UniProt Q9BRG1), the log2 fold change was inactive: -0.026.

Take VPS13C (UniProt Q709C8): the log2 fold change is inactive: 0.036.

Take WDR45B (UniProt Q5MNZ6): the log2 fold change is inactive: -0.095.

Take VPS4B (UniProt O75351): the log2 fold change was inactive: 0.01.

As for VPS13A (UniProt Q96RL7), the log2 fold change was inactive: -0.026.
